Data from patent US20080292632A1 (US Dept. of Health and Human Services, published 2008).
No constants are given. Whether binding was seen depends on the method and setting. Some results given as binding are weak or reduced against the parent protein; the word gives no strength. For some of these results: Where a sequence is shown, tags or fusion partners need not be part of it.

Key:
Experiment in all cases: IRTA2 domain Fc-fusion
IRTA2 1-8-RFc (human) = molecular target: T1, IRTA2 1-8-RFc (human) (UniProt Q96RD9)
T1 sequence (looked up): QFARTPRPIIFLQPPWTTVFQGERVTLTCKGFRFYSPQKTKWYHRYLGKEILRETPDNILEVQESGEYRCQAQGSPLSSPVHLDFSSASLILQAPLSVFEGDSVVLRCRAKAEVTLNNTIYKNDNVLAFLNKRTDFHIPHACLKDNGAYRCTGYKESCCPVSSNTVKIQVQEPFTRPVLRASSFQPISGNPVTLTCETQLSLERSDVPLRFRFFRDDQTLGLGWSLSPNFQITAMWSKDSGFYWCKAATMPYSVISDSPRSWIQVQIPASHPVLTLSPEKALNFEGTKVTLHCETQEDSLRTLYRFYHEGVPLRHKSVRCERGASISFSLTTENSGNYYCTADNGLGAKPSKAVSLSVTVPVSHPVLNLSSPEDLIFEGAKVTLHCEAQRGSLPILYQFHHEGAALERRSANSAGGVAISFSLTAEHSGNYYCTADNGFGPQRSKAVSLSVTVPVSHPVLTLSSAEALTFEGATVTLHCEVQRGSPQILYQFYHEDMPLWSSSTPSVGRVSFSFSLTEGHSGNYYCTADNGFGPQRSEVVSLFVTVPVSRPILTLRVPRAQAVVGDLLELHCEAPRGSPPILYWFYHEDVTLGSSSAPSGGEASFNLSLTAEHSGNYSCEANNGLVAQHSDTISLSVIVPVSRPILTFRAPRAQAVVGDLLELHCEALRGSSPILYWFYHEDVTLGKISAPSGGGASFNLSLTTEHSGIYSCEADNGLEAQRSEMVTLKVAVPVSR

[1] = molecular target: T2, IRTA2 ED1 Fc-fusion (human) (UniProt Q96RD9)
T2 sequence (looked up): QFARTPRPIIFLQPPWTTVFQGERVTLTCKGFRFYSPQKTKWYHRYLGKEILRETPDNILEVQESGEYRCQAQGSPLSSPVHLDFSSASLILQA

[2] = molecular target: T3, IRTA2 ED1-2 Fc-fusion (human) (UniProt Q96RD9)
T3 sequence (looked up): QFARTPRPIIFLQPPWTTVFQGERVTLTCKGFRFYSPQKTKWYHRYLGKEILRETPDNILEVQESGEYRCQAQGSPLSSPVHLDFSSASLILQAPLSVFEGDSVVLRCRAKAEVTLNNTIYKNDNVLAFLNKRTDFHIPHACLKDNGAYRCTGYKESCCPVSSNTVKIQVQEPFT

[3] = molecular target: T4, IRTA2 ED1-8 Fc-fusion (human) (UniProt Q96RD9)
T4 sequence (looked up): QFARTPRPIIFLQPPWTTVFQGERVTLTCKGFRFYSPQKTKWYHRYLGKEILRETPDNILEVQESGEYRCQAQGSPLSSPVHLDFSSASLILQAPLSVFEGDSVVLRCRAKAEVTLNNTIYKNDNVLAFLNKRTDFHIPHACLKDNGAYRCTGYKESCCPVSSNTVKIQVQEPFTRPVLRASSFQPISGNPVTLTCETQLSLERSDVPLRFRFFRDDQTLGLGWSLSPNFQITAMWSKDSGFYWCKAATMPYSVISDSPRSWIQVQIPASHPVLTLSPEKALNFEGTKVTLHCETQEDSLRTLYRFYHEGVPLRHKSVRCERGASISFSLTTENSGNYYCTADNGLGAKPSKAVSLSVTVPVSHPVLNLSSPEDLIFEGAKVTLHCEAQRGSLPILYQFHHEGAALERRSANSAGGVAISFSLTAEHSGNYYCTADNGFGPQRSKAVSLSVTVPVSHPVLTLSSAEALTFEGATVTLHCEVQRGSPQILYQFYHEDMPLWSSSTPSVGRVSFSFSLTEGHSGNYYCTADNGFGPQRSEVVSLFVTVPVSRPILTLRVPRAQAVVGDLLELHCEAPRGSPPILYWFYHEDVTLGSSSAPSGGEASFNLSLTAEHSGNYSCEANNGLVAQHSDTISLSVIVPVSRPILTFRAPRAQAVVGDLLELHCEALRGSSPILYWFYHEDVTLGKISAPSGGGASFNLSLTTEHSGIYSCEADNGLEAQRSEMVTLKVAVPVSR

- binding (IRTA2 1-8-RFc (human)): binds
- binding [1]: binds
- binding [2]: binds
- binding [3]: binds
B1: F25 (antibody, IgG2a, V domains shown)
VH: EVQLQQSGPELVKPGTSVKMSCKASGYSFTGYFMNWMMQNHGKSLEWIGRINLYNGDTFYNQKFKDKATLTVDKSSNTVHMEFRSLASEDSAVYYCASSLYYFDYWGQGTTFTVSS
VL: DIVMTQSHKFMSTSVGDRVNITCKASQDVGTNVAWYQQKPGQSPKLLIYWASTRQTGVPDRFTGSGSGTDFTLTISNVQSEDLSDYFCQQYSSYPLTFGAGTKLELKR
notes: mouse hybridoma MAb, IgG2a, kappa; also called MAb F25; biotin-MAb F25
